From paper PMC7819943, “Rice protein-binding microarrays: a tool to detect cis-acting elements near promoter regions in rice”
The other results are listed elsewhere or left out.

The chains behind the UniProt entries cited, without tags or fusion partners.
UniProt Q0JBA9, entry or part of it: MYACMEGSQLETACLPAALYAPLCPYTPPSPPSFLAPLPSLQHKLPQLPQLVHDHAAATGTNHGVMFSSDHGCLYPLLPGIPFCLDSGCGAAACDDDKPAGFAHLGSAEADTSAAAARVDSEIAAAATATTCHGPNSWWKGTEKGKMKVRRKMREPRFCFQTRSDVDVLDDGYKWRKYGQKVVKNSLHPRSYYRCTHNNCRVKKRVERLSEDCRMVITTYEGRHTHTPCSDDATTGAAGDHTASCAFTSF

These sequences were tested against OsWRKY34 (Oryza sativa, UniProt Q0JBA9 1-250) (assay: protein-binding microarray (RPBM); PBS, 2% BSA, 51.3 ng/ul salmon testes DNA, 50 uM zinc acetate, 200 nM TF, 25 C, 1 h; high values mean tight binding). Conditions: protein: recombinant; tags: N-terminal polyhistidine and DsRed monomer fusion (pET32a); label: CyDye5-dUTP incorporated in the synthesized complementary strand; 3' TTTTT single-stranded linker to array surface; dsDNA, one strand shown.
Procedure, shortened: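 For the binding signal, per-feature fluorescence intensity was read in arbitrary units on an Axon 4000B scanner. Before scanning, a 2% BSA-blocked custom Agilent array made double-stranded with Cy5-dUTP was washed after 1 h at 25 °C with 200 nM protein and 50 µM zinc acetate. The proteins were Ni–NTA-purified transcription factors with N-terminal polyhistidine and DsRed fusions, expressed in E. coli BL21-CodonPlus.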

| Sequence | binding signal |
| --- | --- |
| GAGAGTGTTTGTATTTCTGTTTTCAGGTCCAAGGTAGCGACGGAGTCACCTAGTGCAG | 11500 fluorescence intensity (a.u.) |
| ACCTTTCATTCTCAGGTTATAATTATATTATCATTTCTTTCGGAGTCACCTAGTGCAG | 10300 fluorescence intensity (a.u.) |
| GTCAGTTTGTCCGCCCGCCGCCGCCGCCGCCGCCGCCGTCCGGAGTCACCTAGTGCAG | 9620 fluorescence intensity (a.u.) |
| TCTTCGTGAGCATCCTTGTACCATTTGACTCTATAAAAAACGGAGTCACCTAGTGCAG | 9830 fluorescence intensity (a.u.) |
| AACTTTTCCAACTTTACTCTCTCGCGCTAACACTTTTTAACGGAGTCACCTAGTGCAG | 10500 fluorescence intensity (a.u.) |
| CGAACGCGCCACTGCTTAGCTTACTCCCGCCTCACTATCTCGGAGTCACCTAGTGCAG | 9750 fluorescence intensity (a.u.) |
| ATTTGCACCATTTGCACGTCTGCTGTGAAGAATCTGCCATCGGAGTCACCTAGTGCAG | 8880 fluorescence intensity (a.u.) |
| ATTCCAAGCAGGTGGACCCGCGTGTCATCCCCACTCTACACGGAGTCACCTAGTGCAG | 8110 fluorescence intensity (a.u.) |
| ACCGTCTGCGTCTGCATCCCGGCGGCCATGCCCTTCGCCGCGGAGTCACCTAGTGCAG | 8240 fluorescence intensity (a.u.) |
| TCGAAGATGTCGTTATTGCGTTCTTTTCTGCTATTCCATACGGAGTCACCTAGTGCAG | 8430 fluorescence intensity (a.u.) |
| TAATTGTTGTCTTATTTCTTCTTCTGCGCCGAATGCTCAACGGAGTCACCTAGTGCAG | 8600 fluorescence intensity (a.u.) |
| GCTCAGGACACTAAAAAGCTTCTATCTTTGACTTGGAAGACGGAGTCACCTAGTGCAG | 10500 fluorescence intensity (a.u.) |
| CTCTTCTTTCCATTGTTAACCTTCGATTGAACAATTAGGTCGGAGTCACCTAGTGCAG | 8920 fluorescence intensity (a.u.) |
| TGCTTCTCTCTGTTTGTTGGTTGTTGCCCATATTATCATTCGGAGTCACCTAGTGCAG | 9530 fluorescence intensity (a.u.) |
| CCCAGCTTTCCTCGCTAATGCATATTCCGTCCATGACCACCGGAGTCACCTAGTGCAG | 8220 fluorescence intensity (a.u.) |
| CTGCCCACCCCGACCTCCATCCATGGCGTTCTCTCTCTCTCGGAGTCACCTAGTGCAG | 9930 fluorescence intensity (a.u.) |
| CATGGTTTCCAAGCCGACCAAGCAACCTCTGCCCGCGTTTCGGAGTCACCTAGTGCAG | 8490 fluorescence intensity (a.u.) |
| GCCGCCGCCTCCTCTGTCTGCCGCCACCGCCGCCGCCGCCCGGAGTCACCTAGTGCAG | 9520 fluorescence intensity (a.u.) |
| CTCTGCTTCTTGGTTTGAACACTCATGCTAGTTTTTTATTCGGAGTCACCTAGTGCAG | 8220 fluorescence intensity (a.u.) |
| ACGTCTCCACCACCACCACCGGCCAAACGCCGACCTCATCCGGAGTCACCTAGTGCAG | 9450 fluorescence intensity (a.u.) |
| CTCGGCCTCGGCCTCGAATTTCGTCTCCTCGCCCGCCGCTCGGAGTCACCTAGTGCAG | 10700 fluorescence intensity (a.u.) |

Random excerpt: 3 entries already listed, in no set order.

| Sequence | binding signal |
| --- | --- |
| CTCGGCCTCGGCCTCGAATTTCGTCTCCTCGCCCGCCGCTCGGAGTCACCTAGTGCAG | 10700 fluorescence intensity (a.u.) |
| ACCTTTCATTCTCAGGTTATAATTATATTATCATTTCTTTCGGAGTCACCTAGTGCAG | 10300 fluorescence intensity (a.u.) |
| ACCGTCTGCGTCTGCATCCCGGCGGCCATGCCCTTCGCCGCGGAGTCACCTAGTGCAG | 8240 fluorescence intensity (a.u.) |

Following part.

| Sequence | binding signal |
| --- | --- |
| AATTTGGATACCCTGCAGAAGTACGTGAATTTTTACATTTCGGAGTCACCTAGTGCAG | 8650 fluorescence intensity (a.u.) |
| CAGGAACCAGTTTAGATGAGACTTTTGACTTTTTACTATTCGGAGTCACCTAGTGCAG | 8700 fluorescence intensity (a.u.) |
| GGTGGGGAGGGAAGAGGAGGCGGGCCTCCAATTTCGCCTCCGGAGTCACCTAGTGCAG | 9910 fluorescence intensity (a.u.) |
| CCGCGCCACCAAACACTCGAGCTCGCCGGACTTAGGGTTTCGGAGTCACCTAGTGCAG | 8280 fluorescence intensity (a.u.) |
| AATCACCTCCCTTATCTTACCTGCATGACAAATGCCTCGACGGAGTCACCTAGTGCAG | 8590 fluorescence intensity (a.u.) |
| ACGCCGGCTTCTTCGTCCTCTTCTTCTTCTTCTTCTTCTTCGGAGTCACCTAGTGCAG | 11900 fluorescence intensity (a.u.) |
| GCCAGCTCGTGCCGCACAATGCCACCACCAGACTTACAGACGGAGTCACCTAGTGCAG | 10100 fluorescence intensity (a.u.) |
| GGGCCACGGGTTTATTATTTTTGGATTCAAATTGCCACATCGGAGTCACCTAGTGCAG | 10400 fluorescence intensity (a.u.) |
| AGCGCCCGGCTACGACGACACCTTGCCGCCGATCGTCTTCCGGAGTCACCTAGTGCAG | 9490 fluorescence intensity (a.u.) |
| CCCACACAGCATTCAGGCCTCGTTCTTCGCACTGGGCCCTCGGAGTCACCTAGTGCAG | 8590 fluorescence intensity (a.u.) |
| TTTGTAGGGTCTGAATTAATTTTTTTCCCCTTGCTCCACACGGAGTCACCTAGTGCAG | 8120 fluorescence intensity (a.u.) |
| GATACTCCCTCCATCCATAAATATTTGATGCCGTTGACTTCGGAGTCACCTAGTGCAG | 12300 fluorescence intensity (a.u.) |
| GGTTGTATGAGTCGAATATTTACTTGCACTTTTATATAGCCGGAGTCACCTAGTGCAG | 11100 fluorescence intensity (a.u.) |
| GAGGTGAGAGCGGCTTCTGGCCGCGACGTGGGAGGGTGGGCGGAGTCACCTAGTGCAG | 8280 fluorescence intensity (a.u.) |
| GTTGCCCTATTCTGTACCCATGAATTAAATTATTTGCTGACGGAGTCACCTAGTGCAG | 8280 fluorescence intensity (a.u.) |
| TAACGACTCCGCCCCTCACCCACCACCCCACCCATCGCCTCGGAGTCACCTAGTGCAG | 10200 fluorescence intensity (a.u.) |
| AGGGGAGGGGCTACAGAACTCCAATCCACCGTAGGTTTGTCGGAGTCACCTAGTGCAG | 8780 fluorescence intensity (a.u.) |
| GCCAGGTGATTTCCATGAGCGCGGGTTGGGTAGTGTACACCGGAGTCACCTAGTGCAG | 10400 fluorescence intensity (a.u.) |
| CCTTGGCGTCATTGGTTTACAGTCGTGTACTCGTGTACTACGGAGTCACCTAGTGCAG | 8550 fluorescence intensity (a.u.) |
| GCTTGGAGCATCAGAGACTCATACGGGTTTCACATTCTCTCGGAGTCACCTAGTGCAG | 8200 fluorescence intensity (a.u.) |
| GCATCCTTCACACACAGTAACAATTTATGCGCAACCAAGTCGGAGTCACCTAGTGCAG | 10700 fluorescence intensity (a.u.) |
